These are yes or no findings as the source states them, for the method shown. In cells and extracts the contact can be indirect. Some results given as binding are weak or reduced against the parent protein; the word gives no strength. For part of these data: Where a sequence is shown, tags or fusion partners need not be part of it.
Legend:
[1] = target: T1, Citrine-LYM2 (LYSM-CONTAINING GPI-ANCHORED PROTEIN 2), expressed in N. benthamiana (Arabidopsis) (UniProt O23006); assay: co-IP; N. benthamiana leaves coexpressing bait and prey, water- or chitin-treated; Citrine- or GFP-tagged bait precipitated from detergent-extracted fractions with GFP-Trap beads, 2 h at 4 °C; IP buffer 50 mM Tris-HCl pH 7.5, 150 mM NaCl, 0.5% IGEPAL CA-630; blots with anti-GFP and anti-HA
T1 sequence: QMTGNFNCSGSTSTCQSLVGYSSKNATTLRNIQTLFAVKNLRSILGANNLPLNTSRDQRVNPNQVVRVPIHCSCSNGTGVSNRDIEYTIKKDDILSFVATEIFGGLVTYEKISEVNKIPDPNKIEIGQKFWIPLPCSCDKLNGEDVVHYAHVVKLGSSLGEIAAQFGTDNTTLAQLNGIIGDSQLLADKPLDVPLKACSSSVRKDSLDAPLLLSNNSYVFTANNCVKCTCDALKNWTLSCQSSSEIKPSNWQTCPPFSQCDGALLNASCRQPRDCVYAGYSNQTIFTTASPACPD

LYK4-GFP (Arabidopsis) [2] = target: T2, LYK4-GFP (Arabidopsis) (UniProt O64825); assay: as above
T2 sequence: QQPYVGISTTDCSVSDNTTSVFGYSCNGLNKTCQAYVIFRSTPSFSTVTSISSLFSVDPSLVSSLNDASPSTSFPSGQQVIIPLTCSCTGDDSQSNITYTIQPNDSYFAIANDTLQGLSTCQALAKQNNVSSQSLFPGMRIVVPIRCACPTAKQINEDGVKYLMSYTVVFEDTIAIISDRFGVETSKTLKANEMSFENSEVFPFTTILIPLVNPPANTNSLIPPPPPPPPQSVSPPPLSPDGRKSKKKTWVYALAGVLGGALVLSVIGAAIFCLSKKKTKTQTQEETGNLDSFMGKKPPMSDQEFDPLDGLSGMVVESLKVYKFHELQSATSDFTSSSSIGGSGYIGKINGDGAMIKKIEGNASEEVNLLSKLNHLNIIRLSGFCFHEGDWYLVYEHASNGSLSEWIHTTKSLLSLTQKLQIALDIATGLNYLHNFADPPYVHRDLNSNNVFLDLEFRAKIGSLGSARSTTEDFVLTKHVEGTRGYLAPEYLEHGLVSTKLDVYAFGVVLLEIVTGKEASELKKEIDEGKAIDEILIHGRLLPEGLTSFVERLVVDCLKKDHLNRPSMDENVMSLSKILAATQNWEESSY

[3] = target: T3, Citrine-LYM2, expressed in Arabidopsis protoplasts (Arabidopsis) (UniProt O23006); assay: co-IP; Arabidopsis Col-0 and lyk5-2 protoplasts expressing Citrine-LYM2 and LYK4-RFP, with or without chitin; Citrine-LYM2 precipitated with GFP-Trap beads; blots with anti-GFP and anti-RFP
T3 sequence: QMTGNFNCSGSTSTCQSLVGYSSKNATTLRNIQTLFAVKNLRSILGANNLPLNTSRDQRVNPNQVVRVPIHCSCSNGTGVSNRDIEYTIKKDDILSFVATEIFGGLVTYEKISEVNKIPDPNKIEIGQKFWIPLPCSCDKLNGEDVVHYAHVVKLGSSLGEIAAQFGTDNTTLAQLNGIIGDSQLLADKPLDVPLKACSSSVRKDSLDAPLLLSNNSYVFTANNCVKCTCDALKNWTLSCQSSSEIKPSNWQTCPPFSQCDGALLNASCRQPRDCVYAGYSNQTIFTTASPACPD

LYK4-GFP (Arabidopsis) [4] = target: T2, LYK4-GFP (Arabidopsis); assay: FRET or BRET; FRET-FLIM in N. benthamiana leaf tissue, plasma membrane; donor LYK4-GFP, acceptor LYK5-RFP; 30 min after infiltration with water (mock) or chitin (500 µg/mL); GFP fluorescence lifetime (τAv)
[5] = target: T1, Citrine-LYM2 (LYSM-CONTAINING GPI-ANCHORED PROTEIN 2), expressed in N. benthamiana (Arabidopsis); assay: FRET or BRET; homo-FRET by fluorescence anisotropy (r) of Citrine-LYM2 in chitin-treated N. benthamiana tissue, regions of interest in the plasma membrane and at plasmodesmata, against freely rotating cytosolic GFP

B1: LYK4-HA (receptor, UniProt O64825 23-612)
chain: QQPYVGISTTDCSVSDNTTSVFGYSCNGLNKTCQAYVIFRSTPSFSTVTSISSLFSVDPSLVSSLNDASPSTSFPSGQQVIIPLTCSCTGDDSQSNITYTIQPNDSYFAIANDTLQGLSTCQALAKQNNVSSQSLFPGMRIVVPIRCACPTAKQINEDGVKYLMSYTVVFEDTIAIISDRFGVETSKTLKANEMSFENSEVFPFTTILIPLVNPPANTNSLIPPPPPPPPQSVSPPPLSPDGRKSKKKTWVYALAGVLGGALVLSVIGAAIFCLSKKKTKTQTQEETGNLDSFMGKKPPMSDQEFDPLDGLSGMVVESLKVYKFHELQSATSDFTSSSSIGGSGYIGKINGDGAMIKKIEGNASEEVNLLSKLNHLNIIRLSGFCFHEGDWYLVYEHASNGSLSEWIHTTKSLLSLTQKLQIALDIATGLNYLHNFADPPYVHRDLNSNNVFLDLEFRAKIGSLGSARSTTEDFVLTKHVEGTRGYLAPEYLEHGLVSTKLDVYAFGVVLLEIVTGKEASELKKEIDEGKAIDEILIHGRLLPEGLTSFVERLVVDCLKKDHLNRPSMDENVMSLSKILAATQNWEESSY
- binding [1]: binds

B2: LYK5-HA (receptor, UniProt O22808 27-664)
chain: QQPYVNNHQLACEVRVYDNITNGFTCNGPPSCRSYLTFWSQPPYNTADSIAKLLNVSAAEIQSINNLPTATTRIPTRELVVIPANCSCSSSSGGFYQHNATYNLSGNRGDETYFSVANDTYQALSTCQAMMSQNRYGERQLTPGLNLLVPLRCACPTAKQTTAGFKYLLTYLVAMGDSISGIAEMFNSTSAAITEGNELTSDNIFFFTPVLVPLTTEPTKIVISPSPPPPPVVATPPQTPVDPPGSSSSHKWIYIGIGIGAGLLLLLSILALCFYKRRSKKKSLPSSLPEENKLFDSSTKQSIPTTTTTQWSIDLSNSSEAFGLKSAIESLTLYRFNDLQSATSNFSDENRIKGSVYRATINGDDAAVKVIKGDVSSSEINLLKKLNHSNIIRLSGFCIREGTSYLVFEYSENGSISDWLHSSGKKSLTWKQRVEIARDVAEALDYLHNYITPPHIHKNLESTNILLDSNFRAKIANFGVARILDEGDLDLQLTRHVEGTQGYLAPEYVENGVITSKLDVFAFGVAVLELLSGREAVTIHKKKEGEEEVEMLCKVINSVLGGENVREKLKEFMDPSLGNEYPLELAYTMAQLAKSCVATDLNSRPSVTQVLTTLSMIVSSSIDWEPSDDLLRSGSLGN
- binding [1]: binds
- binding (LYK4-GFP (Arabidopsis) [2]): binds

B3: LYK4-RFP, expressed in Arabidopsis protoplasts (receptor, UniProt O64825 23-612)
chain: QQPYVGISTTDCSVSDNTTSVFGYSCNGLNKTCQAYVIFRSTPSFSTVTSISSLFSVDPSLVSSLNDASPSTSFPSGQQVIIPLTCSCTGDDSQSNITYTIQPNDSYFAIANDTLQGLSTCQALAKQNNVSSQSLFPGMRIVVPIRCACPTAKQINEDGVKYLMSYTVVFEDTIAIISDRFGVETSKTLKANEMSFENSEVFPFTTILIPLVNPPANTNSLIPPPPPPPPQSVSPPPLSPDGRKSKKKTWVYALAGVLGGALVLSVIGAAIFCLSKKKTKTQTQEETGNLDSFMGKKPPMSDQEFDPLDGLSGMVVESLKVYKFHELQSATSDFTSSSSIGGSGYIGKINGDGAMIKKIEGNASEEVNLLSKLNHLNIIRLSGFCFHEGDWYLVYEHASNGSLSEWIHTTKSLLSLTQKLQIALDIATGLNYLHNFADPPYVHRDLNSNNVFLDLEFRAKIGSLGSARSTTEDFVLTKHVEGTRGYLAPEYLEHGLVSTKLDVYAFGVVLLEIVTGKEASELKKEIDEGKAIDEILIHGRLLPEGLTSFVERLVVDCLKKDHLNRPSMDENVMSLSKILAATQNWEESSY
- binding [3]: binds

B4: LYK5-RFP (receptor, UniProt O22808 27-664)
chain: QQPYVNNHQLACEVRVYDNITNGFTCNGPPSCRSYLTFWSQPPYNTADSIAKLLNVSAAEIQSINNLPTATTRIPTRELVVIPANCSCSSSSGGFYQHNATYNLSGNRGDETYFSVANDTYQALSTCQAMMSQNRYGERQLTPGLNLLVPLRCACPTAKQTTAGFKYLLTYLVAMGDSISGIAEMFNSTSAAITEGNELTSDNIFFFTPVLVPLTTEPTKIVISPSPPPPPVVATPPQTPVDPPGSSSSHKWIYIGIGIGAGLLLLLSILALCFYKRRSKKKSLPSSLPEENKLFDSSTKQSIPTTTTTQWSIDLSNSSEAFGLKSAIESLTLYRFNDLQSATSNFSDENRIKGSVYRATINGDDAAVKVIKGDVSSSEINLLKKLNHSNIIRLSGFCIREGTSYLVFEYSENGSISDWLHSSGKKSLTWKQRVEIARDVAEALDYLHNYITPPHIHKNLESTNILLDSNFRAKIANFGVARILDEGDLDLQLTRHVEGTQGYLAPEYVENGVITSKLDVFAFGVAVLELLSGREAVTIHKKKEGEEEVEMLCKVINSVLGGENVREKLKEFMDPSLGNEYPLELAYTMAQLAKSCVATDLNSRPSVTQVLTTLSMIVSSSIDWEPSDDLLRSGSLGN
- binding (LYK4-GFP (Arabidopsis) [4]): binds

B5: Citrine-LYM2 (LYSM-CONTAINING GPI-ANCHORED PROTEIN 2), expressed in N. benthamiana (receptor, UniProt O23006 24-318)
chain: QMTGNFNCSGSTSTCQSLVGYSSKNATTLRNIQTLFAVKNLRSILGANNLPLNTSRDQRVNPNQVVRVPIHCSCSNGTGVSNRDIEYTIKKDDILSFVATEIFGGLVTYEKISEVNKIPDPNKIEIGQKFWIPLPCSCDKLNGEDVVHYAHVVKLGSSLGEIAAQFGTDNTTLAQLNGIIGDSQLLADKPLDVPLKACSSSVRKDSLDAPLLLSNNSYVFTANNCVKCTCDALKNWTLSCQSSSEIKPSNWQTCPPFSQCDGALLNASCRQPRDCVYAGYSNQTIFTTASPACPD
- binding [5]: binds

— publication PMC7196898
